# Results taken from US20030116748A1, “Environmentally friendly compositions having anti-icing, deicing or graffiti prevention properties” (priority 1995, published 2003).
# Assay: Material characterization (BOD5, COD, TOC)
# Conditions: Standard Methods for the Examination of Water and Wastewater, 17th Edition; preliminary results
compound,measurement,value
"OCC(O)CO [Glycerin, 1,2,3-Propanetriol]",BOD5,468 g/L
same,COD,"1,290 g/L"
same,TOC,402 g/L
